Data source: PubChem BioAssay AID504774 (Drosophila RNAi Screening Center, 2011)

Assay: 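Genes required for cells to withstand methyl methanesulphonate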 (primary screen)
Cell system: Drosophila Kc167 cells
Reagents: long dsRNA against Drosophila genes, about 0.25 µg dsRNA per well
Time to read-out: about 6 days: 3 days knock-down, then 3 days with or without MMS
Conditions: methyl methanesulphonate 0.004% (w/v) for 3 days after knock-down
Measurement: 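ATP-dependent luminescence as a measure of live cells in MMS-exposed wells, quantile normalised within each plate, with replicate values also given as a mean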
Reading the numbers: mean viability with MMS and viability with MMS: higher = more surviving cells after MMS
The screen tested about 23,000 reagents; below is a random part of those with a known target gene and a result. 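Values are quantile-normalised luminescence on an arbitrary scale; higher means more cells surviving MMS.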 Reagents against one gene are numbered here. Not all columns of the deposit are shown.

Target gene | reagent | mean viability with MMS | viability with MMS, replicate 1
CG2124 | 1 | 3.49e6 | 3.98e6
Taf12 (TBP-associated factor 12) | 1 | 3.52e6 | 3.96e6
tho2 | 1 | 2.84e6 | 3.14e6
SPE (Spatzle-Processing Enzyme) | 1 | 3.55e6 | 4.07e6
CG42369 | 1 | 3.33e6 | 3.88e6
CG31869 | 1 | 3.48e6 | 3.83e6
CG31869 | 2 | 3.63e6 | 4.10e6
GstE11 (Glutathione S transferase E11) | 1 | 3.55e6 | 4.07e6
Boot (Bootlegger) | 1 | 3.69e6 | 4.11e6
Nost (Nostrin) | 1 | 3.25e6 | 3.55e6
Nost (Nostrin) | 2 | 3.33e6 | 3.78e6
CG15450 | 1 | 3.51e6 | 4.05e6
CG11999 | 1 | 3.60e6 | 4.08e6
CG3342 | 1 | 3.53e6 | 3.96e6
CG5597 | 1 | 3.53e6 | 4.21e6
CRMP (Collapsin Response Mediator Protein) | 1 | 3.45e6 | 3.97e6
CRMP (Collapsin Response Mediator Protein) | 2 | 3.79e6 | 4.29e6
Cdc16 (Cell division cycle 16) | 1 | 3.41e6 | 3.85e6
CG13842 | 1 | 3.49e6 | 3.90e6
Nubpl (NUBP iron-sulfur cluster assembly factor, mitochondrial) | 1 | 3.50e6 | 3.95e6
grsm (granny smith) | 1 | 3.54e6 | 3.79e6
grsm (granny smith) | 2 | 3.62e6 | 3.99e6
TwdlX (TweedleX) | 1 | 3.62e6 | 4.10e6
Rbp6 (RNA-binding protein 6) | 1 | 3.63e6 | 4.08e6
Rbp6 (RNA-binding protein 6) | 2 | 3.45e6 | 3.91e6
Rbp6 (RNA-binding protein 6) | 3 | 3.42e6 | 3.76e6
Rbp6 (RNA-binding protein 6) | 4 | 3.44e6 | 3.74e6
Rbp6 (RNA-binding protein 6) | 5 | 3.43e6 | 3.78e6
Pde1c (Phosphodiesterase 1c) | 1 | 3.30e6 | 3.72e6
Pde1c (Phosphodiesterase 1c) | 2 | 3.30e6 | 3.71e6
Pde1c (Phosphodiesterase 1c) | 3 | 3.28e6 | 3.65e6
Pde1c (Phosphodiesterase 1c) | 4 | 3.12e6 | 3.68e6
Pde1c (Phosphodiesterase 1c) | 5 | 3.42e6 | 3.85e6
Pde1c (Phosphodiesterase 1c) | 6 | 3.38e6 | 3.80e6
CG8188 | 1 | 3.65e6 | 4.10e6
CG16815 | 1 | 3.56e6 | 4.09e6
CG32280 | 1 | 3.41e6 | 3.78e6
CG8172 | 1 | 3.75e6 | 4.19e6
CG8172 | 2 | 3.45e6 | 3.94e6
alpha-Cat (alpha Catenin) | 1 | 3.52e6 | 3.98e6
CG7824 | 1 | 3.50e6 | 3.90e6
Osi5 (Osiris 5) | 1 | 3.59e6 | 4.06e6
CG8501 | 1 | 3.61e6 | 3.99e6
CG13018 | 1 | 3.59e6 | 4.01e6
CG7692 | 1 | 3.61e6 | 3.92e6
CG10948 | 1 | 3.63e6 | 4.21e6
CG12486 (retired record) | 1 | 3.63e6 | 4.21e6
miple1 (midkine and pleiotrophin 1) | 1 | 3.56e6 | 4.07e6
CG6665 | 1 | 3.60e6 | 4.12e6
Cpr78Cc (Cuticular protein 78Cc) | 1 | 3.46e6 | 4.01e6
Spt7 | 1 | 3.59e6 | 4.17e6
CG14322 | 1 | 3.55e6 | 4.09e6
l(2)dtl (lethal-(2)-denticleless) | 1 | 2.97e6 | 3.49e6
Jra (Jun-related antigen) | 1 | 3.52e6 | 4.11e6
CG11345 | 1 | 3.51e6 | 3.98e6
CG30274 | 1 | 3.65e6 | 4.12e6
Ir87a (Ionotropic receptor 87a) | 1 | 3.79e6 | 4.24e6
M7BP (Myosin-7a binding protein) | 1 | 3.45e6 | 4.05e6
cv (crossveinless) | 1 | 3.62e6 | 4.06e6
CG9259 | 1 | 3.49e6 | 3.98e6
CG9109 | 1 | 3.43e6 | 3.82e6
CG42521 | 1 | 3.46e6 | 4.09e6
CG17574 | 1 | 3.63e6 | 4.02e6
aralar1 | 1 | 3.43e6 | 3.95e6
aralar1 | 2 | 3.59e6 | 4.13e6
TrpRS (Tryptophanyl-tRNA synthetase) | 1 | 3.42e6 | 3.91e6
CG31823 | 1 | 3.63e6 | 4.14e6
phol (pleiohomeotic like) | 1 | 3.40e6 | 3.81e6
